The values that follow come from publication PMC4148199, “Multiple Regulation of Rad51-Mediated Homologous Recombination by Fission Yeast Fbh1” (PLoS Genetics, 2014).

In this data set the test system is Fbh1 + Skp1. Nature of the data set: EMSA. To be noted: 3 mM Mg-acetate, ssDNA preferred over dsDNA, EMSA: 25 mM Tris-acetate pH 8.0, 1 mM DTT, 5% glycerol, 100 mM KCl, 10 nM DNA, 30 C 10 min, recombinant protein, protein details: 6His,6His, label: 32P on F3-d47. A general note: In EMSA bound probe runs differently from free probe, usually more slowly.

The exact form of at least one protein or probe is not confirmed. The comparison behind a weaker result is the experiment's own reference, which may not be listed here. At least one verdict rests on a figure or table, not on a statement of the authors.

In the case of “AGCTATGACCATGATTACGAATTGCTTGGAATCCTGACGAACTGTAG (double strand) [F3-d47/F3-d47R (47 bp dsDNA)]”, the binding result was “binds more weakly”.
